# Among all 290,000 compounds or so, about 110 (0.038%) were called active. Inconclusive results, whose numbers are uncertain, are shown with a selection of clear calls. Calls come from the whole dose curve; as a rule, active = well fitted inhibition curve with a large enough effect in the polarisation, with a control signal flat (not every such curve was filed as active); inconclusive = small, poorly fitted or top-dose-only effect, or effect the other way, or a change in a side signal; inactive = no such curve, though single readings can be large or run the other way; the % refers to the polarisation. Potencies beside an inconclusive call are fits to weak or partial responses and may not hold up. A note “side channel” means that the fit belongs to a control or component signal, not to the main read-out.
# Amino acid sequences for entries named in this document (tags omitted).
# UniProt Q03164, whole entry, looked up: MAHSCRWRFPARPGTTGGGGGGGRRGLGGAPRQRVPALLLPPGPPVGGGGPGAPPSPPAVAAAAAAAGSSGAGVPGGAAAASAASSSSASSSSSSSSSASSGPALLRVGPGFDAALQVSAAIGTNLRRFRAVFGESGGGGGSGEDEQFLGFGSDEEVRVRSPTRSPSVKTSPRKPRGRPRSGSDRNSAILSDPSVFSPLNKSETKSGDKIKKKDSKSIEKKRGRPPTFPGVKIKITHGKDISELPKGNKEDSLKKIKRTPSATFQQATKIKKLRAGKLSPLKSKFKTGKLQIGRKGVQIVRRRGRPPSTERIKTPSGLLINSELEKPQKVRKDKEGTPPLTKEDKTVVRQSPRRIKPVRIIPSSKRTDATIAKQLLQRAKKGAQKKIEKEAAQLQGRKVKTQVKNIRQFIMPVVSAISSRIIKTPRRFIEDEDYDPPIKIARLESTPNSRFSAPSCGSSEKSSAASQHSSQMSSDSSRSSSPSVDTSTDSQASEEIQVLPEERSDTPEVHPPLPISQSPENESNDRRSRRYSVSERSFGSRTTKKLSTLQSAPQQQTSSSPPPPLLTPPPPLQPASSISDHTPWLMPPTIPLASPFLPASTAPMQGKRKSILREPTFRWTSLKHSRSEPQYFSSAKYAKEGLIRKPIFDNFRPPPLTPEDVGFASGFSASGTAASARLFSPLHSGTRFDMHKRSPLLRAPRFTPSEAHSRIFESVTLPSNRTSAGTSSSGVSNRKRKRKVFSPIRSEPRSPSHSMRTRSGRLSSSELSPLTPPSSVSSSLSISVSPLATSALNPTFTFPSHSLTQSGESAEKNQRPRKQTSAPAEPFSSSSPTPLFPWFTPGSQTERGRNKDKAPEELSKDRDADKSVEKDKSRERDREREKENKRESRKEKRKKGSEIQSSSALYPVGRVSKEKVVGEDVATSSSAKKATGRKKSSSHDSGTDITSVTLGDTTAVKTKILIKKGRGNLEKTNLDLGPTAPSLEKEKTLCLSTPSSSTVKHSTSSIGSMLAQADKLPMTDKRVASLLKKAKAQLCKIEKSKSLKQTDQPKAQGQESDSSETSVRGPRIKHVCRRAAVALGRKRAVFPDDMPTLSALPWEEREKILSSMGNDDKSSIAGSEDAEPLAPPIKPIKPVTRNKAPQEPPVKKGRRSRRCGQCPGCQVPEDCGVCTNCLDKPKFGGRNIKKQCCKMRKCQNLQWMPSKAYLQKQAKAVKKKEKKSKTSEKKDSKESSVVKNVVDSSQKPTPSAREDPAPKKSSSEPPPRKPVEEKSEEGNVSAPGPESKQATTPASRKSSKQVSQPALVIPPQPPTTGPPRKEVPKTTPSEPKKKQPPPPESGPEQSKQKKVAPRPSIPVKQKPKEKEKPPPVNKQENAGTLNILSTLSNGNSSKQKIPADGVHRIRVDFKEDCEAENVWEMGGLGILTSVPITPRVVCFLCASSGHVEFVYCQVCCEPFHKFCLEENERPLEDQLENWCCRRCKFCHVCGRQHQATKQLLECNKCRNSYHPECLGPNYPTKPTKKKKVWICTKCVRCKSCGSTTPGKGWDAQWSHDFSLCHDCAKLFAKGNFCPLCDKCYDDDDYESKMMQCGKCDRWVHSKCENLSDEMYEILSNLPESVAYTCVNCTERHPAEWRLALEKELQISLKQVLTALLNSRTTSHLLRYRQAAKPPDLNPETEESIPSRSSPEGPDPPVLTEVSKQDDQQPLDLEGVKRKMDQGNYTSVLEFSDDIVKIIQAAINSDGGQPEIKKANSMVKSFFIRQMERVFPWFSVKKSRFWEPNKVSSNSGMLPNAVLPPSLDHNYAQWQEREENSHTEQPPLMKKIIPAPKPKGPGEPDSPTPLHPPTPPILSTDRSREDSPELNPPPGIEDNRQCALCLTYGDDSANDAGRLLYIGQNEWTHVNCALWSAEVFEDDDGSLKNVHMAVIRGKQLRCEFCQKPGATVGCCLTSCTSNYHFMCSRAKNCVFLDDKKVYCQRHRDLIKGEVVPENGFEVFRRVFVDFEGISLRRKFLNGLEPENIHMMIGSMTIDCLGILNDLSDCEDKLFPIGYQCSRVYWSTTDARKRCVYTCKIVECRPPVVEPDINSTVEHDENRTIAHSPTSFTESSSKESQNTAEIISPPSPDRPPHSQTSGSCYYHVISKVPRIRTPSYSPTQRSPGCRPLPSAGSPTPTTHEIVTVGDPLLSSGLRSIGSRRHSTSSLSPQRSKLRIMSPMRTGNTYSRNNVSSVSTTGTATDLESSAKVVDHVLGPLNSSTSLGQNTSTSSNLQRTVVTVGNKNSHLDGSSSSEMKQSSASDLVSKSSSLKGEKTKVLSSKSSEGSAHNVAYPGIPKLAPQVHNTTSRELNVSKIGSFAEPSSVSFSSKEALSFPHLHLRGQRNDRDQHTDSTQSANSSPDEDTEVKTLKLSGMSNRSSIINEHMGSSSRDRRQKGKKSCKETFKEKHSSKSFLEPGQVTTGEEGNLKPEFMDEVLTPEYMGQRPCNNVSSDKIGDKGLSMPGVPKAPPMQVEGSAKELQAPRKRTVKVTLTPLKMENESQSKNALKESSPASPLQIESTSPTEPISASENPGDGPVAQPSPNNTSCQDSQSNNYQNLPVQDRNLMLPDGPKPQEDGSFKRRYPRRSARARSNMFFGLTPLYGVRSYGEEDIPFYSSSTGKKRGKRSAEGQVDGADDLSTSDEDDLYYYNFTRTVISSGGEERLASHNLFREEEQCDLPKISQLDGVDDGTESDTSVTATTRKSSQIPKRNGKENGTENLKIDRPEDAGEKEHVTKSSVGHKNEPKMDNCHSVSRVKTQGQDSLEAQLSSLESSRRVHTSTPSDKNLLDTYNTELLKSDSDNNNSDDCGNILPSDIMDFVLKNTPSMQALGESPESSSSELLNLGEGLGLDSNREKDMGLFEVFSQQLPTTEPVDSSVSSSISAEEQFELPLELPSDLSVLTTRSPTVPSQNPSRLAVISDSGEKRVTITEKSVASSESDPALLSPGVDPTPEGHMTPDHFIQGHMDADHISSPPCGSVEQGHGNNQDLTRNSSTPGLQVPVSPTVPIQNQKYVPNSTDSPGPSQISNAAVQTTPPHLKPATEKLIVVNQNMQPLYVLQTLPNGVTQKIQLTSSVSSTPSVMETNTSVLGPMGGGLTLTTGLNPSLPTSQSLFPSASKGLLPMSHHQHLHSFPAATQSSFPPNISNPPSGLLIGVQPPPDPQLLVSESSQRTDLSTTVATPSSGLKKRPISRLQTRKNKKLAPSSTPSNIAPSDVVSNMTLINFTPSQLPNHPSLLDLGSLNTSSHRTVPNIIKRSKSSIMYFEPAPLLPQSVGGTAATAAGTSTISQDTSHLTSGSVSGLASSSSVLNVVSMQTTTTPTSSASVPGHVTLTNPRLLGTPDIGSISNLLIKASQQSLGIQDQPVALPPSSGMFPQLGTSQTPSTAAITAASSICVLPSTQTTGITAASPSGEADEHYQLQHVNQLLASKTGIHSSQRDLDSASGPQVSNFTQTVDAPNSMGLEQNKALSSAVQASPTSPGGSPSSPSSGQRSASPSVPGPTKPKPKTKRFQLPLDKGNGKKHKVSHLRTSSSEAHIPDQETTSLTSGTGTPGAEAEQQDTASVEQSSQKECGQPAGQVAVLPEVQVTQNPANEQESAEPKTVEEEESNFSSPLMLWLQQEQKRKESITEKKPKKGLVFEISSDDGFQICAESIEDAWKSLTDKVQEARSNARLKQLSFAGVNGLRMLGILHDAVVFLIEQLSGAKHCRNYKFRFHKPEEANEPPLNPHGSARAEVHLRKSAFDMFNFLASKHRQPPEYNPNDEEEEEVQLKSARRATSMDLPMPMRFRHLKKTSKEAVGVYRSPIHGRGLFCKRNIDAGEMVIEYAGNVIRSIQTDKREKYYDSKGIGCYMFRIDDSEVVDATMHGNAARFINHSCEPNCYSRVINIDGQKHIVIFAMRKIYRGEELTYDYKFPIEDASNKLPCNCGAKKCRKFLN
# Molecular target: Histone-lysine N-methyltransferase 2A (Homo sapiens) (UniProt Q03164)
# Experiment: qHTS Fluorescence Polarization Assay for Inhibitors of MLL CXXC domain - DNA interaction
# Settings: MLL-CXXC / FITC-HOXA9 DNA fluorescence polarization; series mostly up to 115 µM
# Summary of the method: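 Steps: dispense CXXC domain solution (7 uM) → pin compounds or unlabeled HOX-A9 DNA control → 5 min ambient → add FLSN-HOX-A9 solution (50 nM) → spin → 30 min ambient → fluorescence polarization. Tris pH 7.5/NaCl/DTT/BSA buffer.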
# Potency is the fitted concentration of half-maximal effect.
row,SMILES,Potency
1,CCOC(=O)/C=C1\SCC(=O)N1CC(=O)Nc1cccc(F)c1,"inconclusive: 20 µM [fluorescent, side channel, partial curve]"
2,COc1ccc(-c2nnc(SC(C)C(=O)NNC(=O)c3ccc(C)cc3)o2)cc1 (stereo unspecified),inactive
3,Cc1cccc(-c2cc(C(=O)Nc3ccc4c(c3)OCCO4)c3ccccc3n2)c1,inactive
4,COc1ccc(C(OCC(O)CNCCc2ccc(S(N)(=O)=O)cc2)c2ccc(OC)cc2)cc1 (stereo unspecified),inactive
5,O=C1CNC(=S)N1Cc1cccc(Cl)c1,"inconclusive: 39.8 µM [fluorescent, side channel, partial curve]"
6,Cc1cc2cc(CN(Cc3ccc4c(c3)OCO4)Cc3nnnn3C3CCCC3)c(=O)[nH]c2cc1C,inactive
7,Cc1nc(C)c(C(=O)N/N=C/c2cc(Br)ccc2O)s1,"inconclusive: 3.16 µM [quencher, side channel, full curve, poor fit]"
8,Cc1cc(/C=C2\SC(=S)N(Cc3ccco3)C2=O)c(C)n1-c1cccnc1,"inconclusive: 35.5 µM [fluorescent, side channel, partial curve]"
9,Cc1ccc(/C=C2\SC(=S)N(CCC(=O)NNC(=O)c3cccnc3)C2=O)cc1,"inconclusive: 89.1 µM [inhibitor, single point]"
10,CCN(CC)c1ccc(N=Cc2ccc(N(CC)CC)cc2O)cc1,"inconclusive: 44.7 µM [fluorescent, side channel, partial curve]"
11,O=C1c2cccc3cccc(c23)C(=O)N1CC1CCN(CC(O)COCc2ccc3c(c2)OCO3)CC1 (stereo unspecified),inactive
12,COc1cc(-c2nc(S(=O)(=O)c3ccc(C)cc3)c(N3CCOCC3)o2)cc(OC)c1OC,"inconclusive: 1.26 µM [quencher, side channel, partial curve, poor fit]"
13,Nc1c2c(nc3ccc(Br)cc13)N(Cc1ccccc1)CC2,"inconclusive: 89.1 µM [quencher, side channel, single point]"
14,Cc1cc(NC(=O)COC(=O)COc2cccc3c2OC(C)(C)C3)no1,"inconclusive: 8.91 µM [fluorescent, side channel, single point]"
15,CCCCCCCNc1cccc(C)c1,inactive
16,CCc1ccccc1NC(=S)N(CCN(C)C)C(C)c1cccnc1 (stereo unspecified),"inconclusive: 6.31 µM [fluorescent, side channel, full curve, poor fit]"
17,COc1ccc(CCNC(=O)N[C@@H](Cc2ccccc2)C(=O)O)cc1,"inconclusive: 10 µM [fluorescent, side channel, full curve]"
18,Cc1ccc(N=Nc2c(=O)[nH]n3c(=O)cc(C)[nH]c23)cc1,"inconclusive: 89.1 µM [inhibitor, single point]"
19,CCN[C@@H]1CN(CCCOC)S(=O)(=O)c2sc(S(N)(=O)=O)cc21,inactive
20,COc1ccc(OCC(O)Cn2c(=N)n(Cc3ccccc3)c3ccccc32)cc1 (stereo unspecified),"inconclusive: 22.4 µM [quencher, side channel, partial curve]"
21,Cc1[nH]c2c(ccc3ccccc32)c1C1C(CCN)C1(C)C (stereo unspecified),"inconclusive: 70.8 µM [quencher, side channel, single point]"

row,SMILES,Potency
1,C=CCN(Cc1ccc(OC)c(OC)c1)C(=O)N1CCOCC1,"inconclusive: 31.6 µM [inhibitor, single point]"
2,O=C(CC1NC(=O)NC1=O)NC1(C(=O)NC2CCCCC2)CCCCC1 (stereo unspecified),"inconclusive: 39.8 µM [inhibitor, partial curve]"
3,S=c1[nH]nc(-c2ccccn2)n1/N=C/c1ccc(-c2ccccc2Br)o1,"inconclusive: 15.8 µM [fluorescent, side channel, partial curve]"
4,CCO[C@@H]1OC(C(=O)O)=C[C@H](C2CC2)[C@H]1CCCO,"inconclusive: 39.8 µM [inhibitor, partial curve]"
5,CCCn1c(/N=C/c2c[nH]c3ccccc23)nc2ccccc21,"inconclusive: 14.1 µM [inhibitor, single point]"
6,N#C/C(=C\c1ccccc1OCc1ccc(C(=O)O)cc1)C(=O)Nc1ccc(O)cc1,"inconclusive: 28.2 µM [inhibitor, partial curve]"
7,Fc1ccc(/C=N/NC(=S)Nc2cccnc2)cc1F,"inconclusive: 10 µM [fluorescent, side channel, single point]"
8,COc1ccc(CCC(C)NCCc2ccc(Cl)cc2Cl)cc1 (stereo unspecified),"inconclusive: 11.2 µM [quencher, side channel, partial curve]"
9,Oc1cccc(-c2nc3ccccc3s2)c1,inactive
10,COc1ccc(NC(=O)CSc2ccc(-c3ccco3)nn2)cc1OC,inactive
11,Cc1cc2c(cc1C)[n+](C)cn2CC(O)COCc1ccccc1 (stereo unspecified),inactive
12,COc1cccc(N2CC(C(=O)Nc3nnc(SCCN4CCOCC4)s3)CC2=O)c1 (stereo unspecified),"inconclusive: 28.2 µM [fluorescent, side channel, partial curve]"
13,C/C=C\C=C\C(=O)Nc1cccc(C2=NOC3(C2)C[C@H](C(N)=O)N(C(=O)c2ccccc2C(=O)c2ccccc2)C3)c1 (stereo partly specified),"inconclusive: 1.58 µM [fluorescent, side channel, full curve]"
14,COc1ccnc(Nc2cccc(C)c2)c1C#N,"inconclusive: 1.12 µM [fluorescent, side channel, partial curve, poor fit]"
15,c1ccc(CNc2nc(-c3ccccc3)nc3ccccc23)cc1,inactive
16,CCN(CC)CCNC(=O)c1ccc(N2CCCCC2)c(NS(=O)(=O)c2ccc(C)cc2)c1,"inconclusive: 35.5 µM [quencher, side channel, partial curve, poor fit]"
17,COC(=O)c1ccc(NC(=O)COc2ccc(C3C(C#N)=C(N)Oc4c3ccc3ccccc43)cc2OC)cc1 (stereo unspecified),inactive
18,CC(=O)c1ccc(OCCCC(=O)Nc2cccc(-c3nn[nH]n3)c2)cc1,"inconclusive: 1 µM [fluorescent, side channel, full curve, poor fit]"
19,NC(=O)C1=C[C@H](c2ccccc2)C[C@H](OCc2ccc(CO)cc2)O1,"inconclusive: 44.7 µM [inhibitor, single point]"
20,COc1cc(C=C2C(=O)c3ccccc3C2=O)cc(OC)c1,"inconclusive: 11.2 µM [inhibitor, partial curve]"
21,C=CCn1c(SCC(=O)NCC2CCCO2)nnc1-c1ccccc1 (stereo unspecified),"inconclusive: 35.5 µM [fluorescent, side channel, single point]"

row,SMILES,Potency
1,c1ccc(Nc2cc(Nc3ccccc3)[nH]n2)cc1,inactive
2,CSc1ccc(CN(C)C(=O)c2cccc(S(=O)(=O)NCc3ccccc3)c2)cc1,"inconclusive: 14.1 µM [fluorescent, side channel, single point]"
3,Cc1ccc(C(=O)NCCONC(=O)c2ccc(C)cc2)cc1,"inconclusive: 14.1 µM [quencher, single point]"
4,Cc1ccc(S(=O)(=O)Nc2ccccc2C(=O)Nc2nc(-c3ccc(F)cc3)cs2)cc1,"inconclusive: 447 µM [fluorescent, side channel, partial curve]"
5,COc1ccc(NC(=O)CN(C)C(=O)CNC(=O)C2CCCCC2)cc1,"inconclusive: 11.2 µM [fluorescent, side channel, full curve]"
6,COC(=O)c1cc(N=Cc2c(O)c3ccccc3oc2=O)cc(C(=O)OC)c1,"inconclusive: 31.6 µM [inhibitor, single point]"
7,CCOC(=S)SSC(=S)OCC,inactive
8,N#C/C(=C\c1cn(Cc2ccc(C#N)cc2)c2ccccc12)C(=O)NCc1cccs1,"inconclusive: 70.8 µM [fluorescent, side channel, single point]"
9,O=C(CSc1nnnn1-c1ccc(C(=O)O)cc1)NC1CCCCC1,inactive
10,CC1(C)C=C(c2ccc(C(=O)O)s2)CC(C)(C)N1,"inconclusive: 11.2 µM [fluorescent, side channel, full curve, poor fit]"
11,NC(=O)CN1C(=O)C(=O)N(Cc2ccccc2)C1=O,"inconclusive: 14.1 µM [inhibitor, single point]"
12,O=C(/C=C/c1ccco1)NC(=S)Nc1ccc(C(=O)O)cc1,"inconclusive: 31.6 µM [fluorescent, side channel, partial curve]"
13,O=C(Nc1ccnn1C1CCN(C/C=C/c2ccc(F)cc2)CC1)C1CCCC1,"inconclusive: 14.1 µM [quencher, side channel, single point]"
14,OC(COCCOc1ccc(Br)cc1)CN1CCCCC1 (stereo unspecified),"inconclusive: 20 µM [fluorescent, side channel, full curve, poor fit]"
15,COc1ccc(-c2c(-c3ccc(OCC(=O)NN)cc3O)n[nH]c2C)cc1OC,"inconclusive: 1.41 µM [inhibitor, partial curve, poor fit]"
16,O=C1c2ccccc2C(=O)C1c1ccc(Br)cc1,"inconclusive: 70.8 µM [fluorescent, side channel, single point]"
17,CC1=NOC(=O)/C1=C/c1ccc(-c2ccc(Cl)cc2)o1,"inconclusive: 31.6 µM [inhibitor, single point]"
18,Cc1ccc(OCCN2C(=O)S/C(=C\c3ccc(C)o3)C2=O)cc1,"inconclusive: 89.1 µM [quencher, side channel, single point]"
19,CC(=O)c1ccc(Nc2cc(C)nc3c(C)cccc23)cc1,"inconclusive: 8.91 µM [inhibitor, single point]"

# In the list so far, these have a Cl atom:
row,SMILES,Potency
5,O=C1CNC(=S)N1Cc1cccc(Cl)c1,"inconclusive: 39.8 µM [fluorescent, side channel, partial curve]"
8,COc1ccc(CCC(C)NCCc2ccc(Cl)cc2Cl)cc1 (stereo unspecified),"inconclusive: 11.2 µM [quencher, side channel, partial curve]"
17,CC1=NOC(=O)/C1=C/c1ccc(-c2ccc(Cl)cc2)o1,"inconclusive: 31.6 µM [inhibitor, single point]"
